In patent publication US20240092848A1:
Results are given in words; binding and its absence hold for the method and conditions named. For part of these data: Binding can be weak; no strength is given. For part of these data: Tags and fused reporters may be left off the sequences shown. For part of these data: Binding seen in cells or lysates may run through a third protein. Values belong to the binder of their own block, whether it stands above or below them.

Tests used:
HA-Reck [1] = assay: recap of the PLA result of Example 1
HA-Reck [2] = assay: proximity ligation assay (anti-V5/anti-HA) in GPR124-/-;RECK-/- cells
Gpr124 = assay: anti-V5 immunostaining of non-permeabilized GPR124-/-;RECK-/- cells
Reck = assay: as above
HA-Fz5 = assay: proximity ligation assay (anti-V5/anti-HA) in GPR124-/-;RECK-/- cells
HA-Gpr124 = assay: as above
ReckΔCK4 = assay: proximity ligation assay (anti-V5/anti-HA) with HA-tagged Reck deletion variants
ReckΔCK5 = assay: as above
[3] = target: Fz5 (Mus musculus (Mouse)); assay: anti-V5 immunostaining of non-permeabilized GPR124-/-;RECK-/- cells expressing Fz5
HA-Reck [4] = assay: proximity ligation assay (anti-V5/anti-HA)

- binding (HA-Reck [1]): binds
- binding (HA-Reck [2]): binds
B1: Wnt7a1-278 (ligand, not shown: small tags and cut ends)
chain: LGASIICNKIPGLAPRQRAICQSRPDAIIVIGEGSQMGLDECQFQFRNGRWNCSALGERTVFGKELKVGSREAAFTYAIIAAGVAHAITAACTQGNLSDCGCDKEKQGQYHRDEGWKWGGCSADIRYGIGFAKVFVDAREIKQNARTLMNLHNNEAGRKILEENMKLECKCHGVSGSCTTKTCWTTLPQFRELGYVLKDKYNEAVHVEPVRASRNKRPTFLKIKKPLSYRKPMDTDLVYIEKSPNYC

- binding (Gpr124): no binding
- binding (Reck): binds
- binding (HA-Fz5): binds
- binding (HA-Gpr124): no binding
- binding (HA-Reck [2]): binds
- binding (ReckΔCK4): no binding
- binding (ReckΔCK5): no binding
- binding [3]: binds
B2: Wnt7a-V5 (ligand, not shown: small tags and cut ends)
chain: LGASIICNKIPGLAPRQRAICQSRPDAIIVIGEGSQMGLDECQFQFRNGRWNCSALGERTVFGKELKVGSREAAFTYAIIAAGVAHAITAACTQGNLSDCGCDKEKQGQYHRDEGWKWGGCSADIRYGIGFAKVFVDAREIKQNARTLMNLHNNEAGRKILEENMKLECKCHGVSGSCTTKTCWTTLPQFRELGYVLKDKYNEAVHVEPVRASRNKRPTFLKIKKPLSYRKPMDTDLVYIEKSPNYCEEDPVTGSVGTQGRACNKTAPQASGCDLMCCGRGYNTHQYARVWQCNCKFHWCCYVKCNTCSERTEMYTCK
modifications: palmitoleic acid at Serine 206 (precursor numbering)

- binding (HA-Reck [4]): binds
B3: Wnt7aS206A (ligand, not shown: small tags and cut ends)
chain: LGASIICNKIPGLAPRQRAICQSRPDAIIVIGEGSQMGLDECQFQFRNGRWNCSALGERTVFGKELKVGSREAAFTYAIIAAGVAHAITAACTQGNLSDCGCDKEKQGQYHRDEGWKWGGCSADIRYGIGFAKVFVDAREIKQNARTLMNLHNNEAGRKILEENMKLECKCHGVAGSCTTKTCWTTLPQFRELGYVLKDKYNEAVHVEPVRASRNKRPTFLKIKKPLSYRKPMDTDLVYIEKSPNYCEEDPVTGSVGTQGRACNKTAPQASGCDLMCCGRGYNTHQYARVWQCNCKFHWCCYVKCNTCSERTEMYTCK

- binding (HA-Reck [4]): binds
B4: Wnt7a4A-V5 (ligand, not shown: small tags and cut ends)
chain: LGASIICNKIPGLAPRQRAICQSRPDAIIVIGEGSQMGLDECQFQFRNGRWNCSALGERTVFGKELKVGSREAAFTYAIIAAGVAHAITAACTQGNLSDCGCDKEKQGQYHRDEGWKWGGCSADIRYGIGFAKVFVDAREIKQNARTLMNLHNNEAGRKILEENMKLECKCHGVSGSCTTKTCWTTLPQFRELGYVLKDKYNEAVHVEPARASRNKRPTAAKIKKPLSYRAPMDTDLVYIEKSPNYCEEDPVTGSVGTQGRACNKTAPQASGCDLMCCGRGYNTHQYARVWQCNCKFHWCCYVKCNTCSERTEMYTCK
